Source: PubChem BioAssay (NCATS)
The shares of active, inactive and inconclusive entries below differ from those in the screen. A potency beside an inconclusive call is a rough fit, not a confirmed value. Activity calls are given as the source filed them. Calls follow the shape of the dose curve; as a rule, active = well fitted cell-killing curve with a large enough effect; inconclusive = small, poorly fitted or top-dose-only effect, or effect the other way; inactive = flat fitted curve, though single readings scatter.

Assay: Cell viability qHTS assay in S16 Pmp22-F2sN cells - Confirmatory screen (AID 1508641)
Settings: S16 Schwann cells viability, CellTiter-Glo ATP luminescence, 24 h; activity change, negative = viability loss: at 57.5 µM (top of the series)
Outline: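 Cells (500-1,000 per well) in phenol red-free DMEM with 10% heat-inactivated FBS were exposed to library compounds for 24 h at 37C, 5% CO2. CellTiter-Glo was added, and after 15 min at room temperature luminescence was imaged by CCD camera.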
% is scaled to controls: 0 for no effect and ±100 for the full control effect; potency is read from the fitted curve at half-maximal effect.

Row | SMILES | Potency | activity change, negative = viability loss
1 | Cc1cc(Nc2cccc(Br)c2)n2c(nc3ccccc32)c1C#N | inactive | 
2 | O=S(=O)(c1ccc(-c2csc(=Nc3ccc(OC(F)(F)Cl)cc3)n2CCCO)cc1)N1CCCC1 | active: 21.7 µM | 
3 | CC1=Nc2cc(C(=O)NCCc3ccc(Cl)cc3)ccc2Sc2c(C)ccc(C)c21 | inconclusive: 0.137 µM [rising, full curve] | 
4 | CCC1CCCCN1CCCNC(=O)c1ccc2c(c1)N(Cc1ccccc1F)C(=O)c1ccccc1S2(=O)=O (stereo unspecified) | inconclusive: 48.5 µM [cytotoxic, single point] | 
5 | COc1ccccc1Nc1c2c(nc3ccc(NC(=O)/C=C/c4cccc(OC)c4OC)cc13)CCCC2 | inconclusive: 13.7 µM [cytotoxic, full curve] | 
6 | Cc1cccc(CCNc2ncnc3onc(-c4ccc(Cl)cc4)c23)c1 | inconclusive: 0.273 µM [rising, full curve, poor fit] | 
7 | COc1ccc(NC(=O)c2oc3ccccc3c2NC(=O)Cc2ccc(F)cc2)c(OC)c1 | inconclusive: 24.3 µM [cytotoxic, partial curve, poor fit] | 
8 | Cc1ccc(NC(=O)Cn2c(=O)n(-c3ccc(C)cc3)c(=O)c3ccc(C(=O)NCc4ccccc4Cl)cc32)cc1 | active: 21.7 µM | 
9 | Cc1ccc(CCNC(=O)c2ccc(Nc3nc4ccccc4n4nnnc34)cc2)cc1 | active: 24.3 µM | 
10 | Cc1ccc(C)c(NC(=O)Cn2c(=O)n(Cc3ccccc3)c(=O)c3oc4ccccc4c32)c1 |  | inconclusive: -44.4% [cytotoxic]
11 | Cc1ccc(OCCSc2nc3ccc(NC(=O)COc4ccc(C)cc4)cc3s2)cc1 | inactive | 

Quoted from the listing.
Entry of Cc1ccc(NC(=O)Cn2c(=O)n(-c3ccc(C)cc3)c(=O)c3ccc(C(=O)NCc4ccccc4Cl)cc32)cc1 under Potency: active: 21.7 µM
Entry of Cc1cc(Nc2cccc(Br)c2)n2c(nc3ccccc32)c1C#N under Potency: inactive
